Source: publication PMC8018997
No constants are given. Whether binding was seen depends on the method and setting. For part of these data: In cells and extracts the contact can be indirect. Some results given as binding are weak or reduced against the parent protein; the word gives no strength. For part of these data: Tags and fused reporters may be left off the sequences shown.

Amino acid sequences for entries named in this document (tags omitted). A change or cut given only in a name is not applied to a line headed by its entry. Chains listed by the source or under a name are the forms on record and can include a tag or linker. Residues count along the entry.
UniProt O15379: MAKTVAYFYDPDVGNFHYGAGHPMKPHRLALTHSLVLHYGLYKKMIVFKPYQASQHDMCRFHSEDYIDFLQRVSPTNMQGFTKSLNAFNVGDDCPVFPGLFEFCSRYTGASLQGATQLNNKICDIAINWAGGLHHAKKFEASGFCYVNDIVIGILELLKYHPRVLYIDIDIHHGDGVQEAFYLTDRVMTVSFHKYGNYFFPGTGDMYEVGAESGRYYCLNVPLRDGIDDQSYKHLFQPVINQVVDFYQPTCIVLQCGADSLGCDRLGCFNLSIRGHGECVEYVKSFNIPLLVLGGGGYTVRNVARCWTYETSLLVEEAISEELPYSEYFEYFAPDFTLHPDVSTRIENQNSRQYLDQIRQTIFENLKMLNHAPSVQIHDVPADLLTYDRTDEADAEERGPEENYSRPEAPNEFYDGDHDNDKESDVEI
Flag-tagged HDAC3 (1-316 aa): residues 1-316 of O15379

Columns and labels:
[1] = target: T1, Flag-tagged wild-type TBK1, Q9UHD2; assay: native gel or EMSA; HEK293T TBK1-knockout cells transfected 48 h with Flag-tagged TBK1 wild type or mutants; 8% native PAGE without SDS, then immunoblot; dimer or monomer form; conditions: remark: other sources report otherwise
T1 chain: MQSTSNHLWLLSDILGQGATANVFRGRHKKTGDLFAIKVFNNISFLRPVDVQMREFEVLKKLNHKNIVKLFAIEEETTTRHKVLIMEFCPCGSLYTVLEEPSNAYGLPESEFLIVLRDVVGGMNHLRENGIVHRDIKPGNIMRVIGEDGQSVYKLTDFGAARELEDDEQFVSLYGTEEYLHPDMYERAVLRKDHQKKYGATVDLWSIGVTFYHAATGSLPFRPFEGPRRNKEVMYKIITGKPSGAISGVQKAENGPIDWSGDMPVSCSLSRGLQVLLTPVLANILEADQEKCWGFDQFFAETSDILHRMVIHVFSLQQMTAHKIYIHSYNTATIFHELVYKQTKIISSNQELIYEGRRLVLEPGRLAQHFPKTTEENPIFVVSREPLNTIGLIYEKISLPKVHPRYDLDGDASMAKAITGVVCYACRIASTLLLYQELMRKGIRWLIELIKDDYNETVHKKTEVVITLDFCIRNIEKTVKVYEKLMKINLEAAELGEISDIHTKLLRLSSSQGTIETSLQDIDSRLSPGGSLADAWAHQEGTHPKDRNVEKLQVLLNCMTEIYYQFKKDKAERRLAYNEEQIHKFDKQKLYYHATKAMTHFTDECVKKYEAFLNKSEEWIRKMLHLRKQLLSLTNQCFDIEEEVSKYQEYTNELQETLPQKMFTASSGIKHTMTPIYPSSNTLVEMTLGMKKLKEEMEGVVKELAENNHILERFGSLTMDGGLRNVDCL

Flag-tagged TBK1 K692R = target: T2, Flag-tagged TBK1 K692R (UniProt Q9UHD2); assay: as above
T2 sequence: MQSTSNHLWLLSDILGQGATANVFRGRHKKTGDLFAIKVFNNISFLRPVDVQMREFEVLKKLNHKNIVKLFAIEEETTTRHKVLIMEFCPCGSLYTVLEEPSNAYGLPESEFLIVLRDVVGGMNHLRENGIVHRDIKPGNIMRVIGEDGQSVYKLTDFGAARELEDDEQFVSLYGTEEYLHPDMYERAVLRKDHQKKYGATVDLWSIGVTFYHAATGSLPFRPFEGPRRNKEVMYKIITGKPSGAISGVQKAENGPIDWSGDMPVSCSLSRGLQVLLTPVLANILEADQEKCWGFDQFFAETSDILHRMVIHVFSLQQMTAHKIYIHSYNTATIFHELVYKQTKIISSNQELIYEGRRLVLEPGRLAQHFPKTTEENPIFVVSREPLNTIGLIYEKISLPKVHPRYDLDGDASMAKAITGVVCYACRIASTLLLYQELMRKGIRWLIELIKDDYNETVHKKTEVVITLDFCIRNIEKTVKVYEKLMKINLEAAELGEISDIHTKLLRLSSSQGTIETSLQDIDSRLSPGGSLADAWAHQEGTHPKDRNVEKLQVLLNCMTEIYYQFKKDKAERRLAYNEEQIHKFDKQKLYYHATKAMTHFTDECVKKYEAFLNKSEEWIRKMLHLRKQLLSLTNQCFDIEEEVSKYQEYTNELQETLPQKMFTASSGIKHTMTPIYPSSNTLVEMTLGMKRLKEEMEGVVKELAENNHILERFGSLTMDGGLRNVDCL

Flag-tagged TBK1 K692Q = target: T3, Flag-tagged TBK1 K692Q (UniProt Q9UHD2); assay: as above
T3 sequence: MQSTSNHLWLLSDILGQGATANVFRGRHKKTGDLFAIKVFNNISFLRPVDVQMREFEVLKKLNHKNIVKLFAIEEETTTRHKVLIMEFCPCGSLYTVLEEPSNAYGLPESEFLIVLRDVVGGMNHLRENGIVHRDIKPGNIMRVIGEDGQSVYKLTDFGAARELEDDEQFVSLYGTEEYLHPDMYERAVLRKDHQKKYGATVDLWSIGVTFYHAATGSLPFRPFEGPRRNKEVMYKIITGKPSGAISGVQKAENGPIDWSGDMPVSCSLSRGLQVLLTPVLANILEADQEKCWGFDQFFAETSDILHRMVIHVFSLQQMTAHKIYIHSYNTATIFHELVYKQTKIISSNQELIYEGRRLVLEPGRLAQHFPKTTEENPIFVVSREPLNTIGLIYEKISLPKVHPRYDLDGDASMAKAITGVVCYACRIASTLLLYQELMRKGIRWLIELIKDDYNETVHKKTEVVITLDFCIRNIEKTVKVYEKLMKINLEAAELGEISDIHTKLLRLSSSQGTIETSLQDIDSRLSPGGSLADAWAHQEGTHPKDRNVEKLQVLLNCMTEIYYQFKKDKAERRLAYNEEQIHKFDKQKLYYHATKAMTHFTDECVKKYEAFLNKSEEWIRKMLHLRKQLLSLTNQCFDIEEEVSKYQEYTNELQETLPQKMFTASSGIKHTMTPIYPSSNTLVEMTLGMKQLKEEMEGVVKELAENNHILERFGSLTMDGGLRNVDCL

[2] = target: T4, TBK1 as used in the immunoprecipitations of Figure S2A-C (construct not stated) (UniProt Q9UHD2); assay: co-IP
T4 sequence: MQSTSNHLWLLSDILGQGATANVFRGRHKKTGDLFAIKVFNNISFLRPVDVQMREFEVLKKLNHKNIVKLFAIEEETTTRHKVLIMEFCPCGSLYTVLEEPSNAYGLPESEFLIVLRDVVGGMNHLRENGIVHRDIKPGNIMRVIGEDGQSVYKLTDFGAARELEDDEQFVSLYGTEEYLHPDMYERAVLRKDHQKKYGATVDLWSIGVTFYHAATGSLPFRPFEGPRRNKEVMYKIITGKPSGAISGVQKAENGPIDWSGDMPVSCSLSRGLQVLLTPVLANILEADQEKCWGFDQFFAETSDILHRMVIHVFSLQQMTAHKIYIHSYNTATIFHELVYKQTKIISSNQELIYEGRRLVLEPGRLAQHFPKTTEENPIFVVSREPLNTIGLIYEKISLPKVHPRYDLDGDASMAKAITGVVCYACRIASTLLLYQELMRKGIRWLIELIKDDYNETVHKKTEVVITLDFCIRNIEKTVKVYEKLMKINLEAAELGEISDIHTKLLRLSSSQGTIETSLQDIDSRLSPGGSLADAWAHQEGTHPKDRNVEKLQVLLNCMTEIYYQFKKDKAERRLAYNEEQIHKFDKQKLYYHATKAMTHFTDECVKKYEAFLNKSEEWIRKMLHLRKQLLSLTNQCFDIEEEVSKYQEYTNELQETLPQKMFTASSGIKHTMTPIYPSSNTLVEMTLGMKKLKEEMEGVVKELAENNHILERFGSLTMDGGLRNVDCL

[3] = target: Flag-tagged wild-type HDAC3 (histone deacetylase 3) (UniProt O15379); assay: co-IP
[4] = target: Flag-tagged HDAC3 (1-316 aa) (UniProt O15379); assay: co-IP

B1: Flag-tagged wild-type TBK1, Q9UHD2 1-729 (enzyme)
chain: MQSTSNHLWLLSDILGQGATANVFRGRHKKTGDLFAIKVFNNISFLRPVDVQMREFEVLKKLNHKNIVKLFAIEEETTTRHKVLIMEFCPCGSLYTVLEEPSNAYGLPESEFLIVLRDVVGGMNHLRENGIVHRDIKPGNIMRVIGEDGQSVYKLTDFGAARELEDDEQFVSLYGTEEYLHPDMYERAVLRKDHQKKYGATVDLWSIGVTFYHAATGSLPFRPFEGPRRNKEVMYKIITGKPSGAISGVQKAENGPIDWSGDMPVSCSLSRGLQVLLTPVLANILEADQEKCWGFDQFFAETSDILHRMVIHVFSLQQMTAHKIYIHSYNTATIFHELVYKQTKIISSNQELIYEGRRLVLEPGRLAQHFPKTTEENPIFVVSREPLNTIGLIYEKISLPKVHPRYDLDGDASMAKAITGVVCYACRIASTLLLYQELMRKGIRWLIELIKDDYNETVHKKTEVVITLDFCIRNIEKTVKVYEKLMKINLEAAELGEISDIHTKLLRLSSSQGTIETSLQDIDSRLSPGGSLADAWAHQEGTHPKDRNVEKLQVLLNCMTEIYYQFKKDKAERRLAYNEEQIHKFDKQKLYYHATKAMTHFTDECVKKYEAFLNKSEEWIRKMLHLRKQLLSLTNQCFDIEEEVSKYQEYTNELQETLPQKMFTASSGIKHTMTPIYPSSNTLVEMTLGMKKLKEEMEGVVKELAENNHILERFGSLTMDGGLRNVDCL
[1]
  binding: binds

B2: Flag-tagged TBK1 K692R (enzyme, UniProt Q9UHD2 1-729)
chain: MQSTSNHLWLLSDILGQGATANVFRGRHKKTGDLFAIKVFNNISFLRPVDVQMREFEVLKKLNHKNIVKLFAIEEETTTRHKVLIMEFCPCGSLYTVLEEPSNAYGLPESEFLIVLRDVVGGMNHLRENGIVHRDIKPGNIMRVIGEDGQSVYKLTDFGAARELEDDEQFVSLYGTEEYLHPDMYERAVLRKDHQKKYGATVDLWSIGVTFYHAATGSLPFRPFEGPRRNKEVMYKIITGKPSGAISGVQKAENGPIDWSGDMPVSCSLSRGLQVLLTPVLANILEADQEKCWGFDQFFAETSDILHRMVIHVFSLQQMTAHKIYIHSYNTATIFHELVYKQTKIISSNQELIYEGRRLVLEPGRLAQHFPKTTEENPIFVVSREPLNTIGLIYEKISLPKVHPRYDLDGDASMAKAITGVVCYACRIASTLLLYQELMRKGIRWLIELIKDDYNETVHKKTEVVITLDFCIRNIEKTVKVYEKLMKINLEAAELGEISDIHTKLLRLSSSQGTIETSLQDIDSRLSPGGSLADAWAHQEGTHPKDRNVEKLQVLLNCMTEIYYQFKKDKAERRLAYNEEQIHKFDKQKLYYHATKAMTHFTDECVKKYEAFLNKSEEWIRKMLHLRKQLLSLTNQCFDIEEEVSKYQEYTNELQETLPQKMFTASSGIKHTMTPIYPSSNTLVEMTLGMKRLKEEMEGVVKELAENNHILERFGSLTMDGGLRNVDCL
Flag-tagged TBK1 K692R
  binding: binds

B3: Flag-tagged TBK1 K692Q (enzyme, UniProt Q9UHD2 1-729)
chain: MQSTSNHLWLLSDILGQGATANVFRGRHKKTGDLFAIKVFNNISFLRPVDVQMREFEVLKKLNHKNIVKLFAIEEETTTRHKVLIMEFCPCGSLYTVLEEPSNAYGLPESEFLIVLRDVVGGMNHLRENGIVHRDIKPGNIMRVIGEDGQSVYKLTDFGAARELEDDEQFVSLYGTEEYLHPDMYERAVLRKDHQKKYGATVDLWSIGVTFYHAATGSLPFRPFEGPRRNKEVMYKIITGKPSGAISGVQKAENGPIDWSGDMPVSCSLSRGLQVLLTPVLANILEADQEKCWGFDQFFAETSDILHRMVIHVFSLQQMTAHKIYIHSYNTATIFHELVYKQTKIISSNQELIYEGRRLVLEPGRLAQHFPKTTEENPIFVVSREPLNTIGLIYEKISLPKVHPRYDLDGDASMAKAITGVVCYACRIASTLLLYQELMRKGIRWLIELIKDDYNETVHKKTEVVITLDFCIRNIEKTVKVYEKLMKINLEAAELGEISDIHTKLLRLSSSQGTIETSLQDIDSRLSPGGSLADAWAHQEGTHPKDRNVEKLQVLLNCMTEIYYQFKKDKAERRLAYNEEQIHKFDKQKLYYHATKAMTHFTDECVKKYEAFLNKSEEWIRKMLHLRKQLLSLTNQCFDIEEEVSKYQEYTNELQETLPQKMFTASSGIKHTMTPIYPSSNTLVEMTLGMKQLKEEMEGVVKELAENNHILERFGSLTMDGGLRNVDCL
Flag-tagged TBK1 K692Q
  binding: binds

B4: TANK (protein, UniProt Q92844 1-425)
chain: MDKNIGEQLNKAYEAFRQACMDRDSAVKELQQKTENYEQRIREQQEQLSLQQTIIDKLKSQLLLVNSTQDNNYGCVPLLEDSETRKNNLTLDQPQDKVISGIAREKLPKVRRQEVSSPRKETSARSLGSPLLHERGNIEKTFWDLKEEFHKICMLAKAQKDHLSKLNIPDTATETQCSVPIQCTDKTDKQEALFKPQAKDDINRGAPSITSVTPRGLCRDEEDTSFESLSKFNVKFPPMDNDSTFLHSTPERPGILSPATSEAVCQEKFNMEFRDNPGNFVKTEETLFEIQGIDPIASAIQNLKTTDKTKPSNLVNTCIRTTLDRAACLPPGDHNALYVNSFPLLDPSDAPFPSLDSPGKAIRGPQQPIWKPFPNQDSDSVVLSGTDSELHIPRVCEFCQAVFPPSITSRGDFLRHLNSHFNGET
[2]
  binding: binds

B5: HA-tagged TBK1 (TANK-binding kinase 1) (enzyme, UniProt Q9UHD2 1-729)
chain: MQSTSNHLWLLSDILGQGATANVFRGRHKKTGDLFAIKVFNNISFLRPVDVQMREFEVLKKLNHKNIVKLFAIEEETTTRHKVLIMEFCPCGSLYTVLEEPSNAYGLPESEFLIVLRDVVGGMNHLRENGIVHRDIKPGNIMRVIGEDGQSVYKLTDFGAARELEDDEQFVSLYGTEEYLHPDMYERAVLRKDHQKKYGATVDLWSIGVTFYHAATGSLPFRPFEGPRRNKEVMYKIITGKPSGAISGVQKAENGPIDWSGDMPVSCSLSRGLQVLLTPVLANILEADQEKCWGFDQFFAETSDILHRMVIHVFSLQQMTAHKIYIHSYNTATIFHELVYKQTKIISSNQELIYEGRRLVLEPGRLAQHFPKTTEENPIFVVSREPLNTIGLIYEKISLPKVHPRYDLDGDASMAKAITGVVCYACRIASTLLLYQELMRKGIRWLIELIKDDYNETVHKKTEVVITLDFCIRNIEKTVKVYEKLMKINLEAAELGEISDIHTKLLRLSSSQGTIETSLQDIDSRLSPGGSLADAWAHQEGTHPKDRNVEKLQVLLNCMTEIYYQFKKDKAERRLAYNEEQIHKFDKQKLYYHATKAMTHFTDECVKKYEAFLNKSEEWIRKMLHLRKQLLSLTNQCFDIEEEVSKYQEYTNELQETLPQKMFTASSGIKHTMTPIYPSSNTLVEMTLGMKKLKEEMEGVVKELAENNHILERFGSLTMDGGLRNVDCL
[3]
  binding: binds
[4]
  binding: binds
